This note sets out measurements from article PMC7575581.

These are yes or no findings as the source states them, for the method shown. Binding seen in cells or lysates may run through a third protein. Some results given as binding are weak or reduced against the parent protein; the word gives no strength. Sequences can lack the tags named with a protein.

The assay concerns the target T1, Importin 13 (human (endogenous in human lung cancer cell lines and HBE)) (UniProt O94829).
T1 sequence: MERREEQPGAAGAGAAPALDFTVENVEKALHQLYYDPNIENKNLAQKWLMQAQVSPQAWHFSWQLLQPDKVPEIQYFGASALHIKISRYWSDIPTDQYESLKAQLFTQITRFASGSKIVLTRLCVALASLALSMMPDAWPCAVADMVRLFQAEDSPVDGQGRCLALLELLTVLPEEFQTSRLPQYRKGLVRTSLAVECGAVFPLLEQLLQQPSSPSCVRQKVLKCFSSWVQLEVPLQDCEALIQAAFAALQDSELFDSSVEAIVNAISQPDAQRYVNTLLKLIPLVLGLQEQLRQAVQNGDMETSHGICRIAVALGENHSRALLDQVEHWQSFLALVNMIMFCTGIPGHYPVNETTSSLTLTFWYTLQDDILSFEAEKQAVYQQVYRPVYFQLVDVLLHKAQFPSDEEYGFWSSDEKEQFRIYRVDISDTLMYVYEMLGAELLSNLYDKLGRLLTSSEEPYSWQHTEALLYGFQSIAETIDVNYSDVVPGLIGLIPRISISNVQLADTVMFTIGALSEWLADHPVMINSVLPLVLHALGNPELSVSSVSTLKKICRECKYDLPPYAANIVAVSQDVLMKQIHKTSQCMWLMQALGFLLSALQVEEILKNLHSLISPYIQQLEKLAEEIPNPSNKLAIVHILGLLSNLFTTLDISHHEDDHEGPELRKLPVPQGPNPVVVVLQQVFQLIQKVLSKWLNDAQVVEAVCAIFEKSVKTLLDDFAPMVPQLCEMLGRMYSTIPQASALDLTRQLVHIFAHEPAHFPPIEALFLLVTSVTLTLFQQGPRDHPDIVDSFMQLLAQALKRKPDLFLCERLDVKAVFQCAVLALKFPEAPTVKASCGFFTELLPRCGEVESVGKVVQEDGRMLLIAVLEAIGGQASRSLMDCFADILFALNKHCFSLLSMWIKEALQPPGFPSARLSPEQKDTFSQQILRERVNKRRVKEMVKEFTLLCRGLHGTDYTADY
The assay can be described thus: co-IP; cells transiently transfected with Flag-tagged RFPL3 or truncation mutants, lysed 48 h after transfection; precipitated with anti-IPO13 (endogenous IPO13) or rabbit IgG control; blot with anti-Flag.

B1: RFPL3-Flag-6 (235–317) (domain or fragment, UniProt O75679 235-317)
chain: FLLVDRKLQRVGIFLDMGMQNVSFFDAESGSHVYTFRSVSAEEPLRPFLAPSIPPNGDQGVLSICPLMNSGTTDAPVRPGEAK
Consider B1, for which the binding entry is reported as “binds weakly”.

B2: RFPL3-Flag-4 (150–317) (domain or fragment, UniProt O75679 150-317)
chain: GLITQNRQDLAERFDVSVCILGSPRFTCGRHYWEVDVGTSTEWDLGVCRESVHCKGKIQLTTELGFWTVSLRDGSRLSASTVPLTFLLVDRKLQRVGIFLDMGMQNVSFFDAESGSHVYTFRSVSAEEPLRPFLAPSIPPNGDQGVLSICPLMNSGTTDAPVRPGEAK
B2: the binding result was “binds weakly”.
